Data published in patent US20190144558A1.
Where a chain is given by its changes, count along the chain named. These are yes or no findings as the source states them, for the method shown. Some entries that bind do so weakly or less than the wild type. Each block holds one binder with its values, some of them ahead of it.

Sequences of proteins named here, by UniProt entry; tags and fusion partners are left off. A change or cut given only in a name is not applied to a line headed by its entry. A line that says so, or that is headed by a name, gives the form on record, which may keep a tag or linker.
UniProt P10721: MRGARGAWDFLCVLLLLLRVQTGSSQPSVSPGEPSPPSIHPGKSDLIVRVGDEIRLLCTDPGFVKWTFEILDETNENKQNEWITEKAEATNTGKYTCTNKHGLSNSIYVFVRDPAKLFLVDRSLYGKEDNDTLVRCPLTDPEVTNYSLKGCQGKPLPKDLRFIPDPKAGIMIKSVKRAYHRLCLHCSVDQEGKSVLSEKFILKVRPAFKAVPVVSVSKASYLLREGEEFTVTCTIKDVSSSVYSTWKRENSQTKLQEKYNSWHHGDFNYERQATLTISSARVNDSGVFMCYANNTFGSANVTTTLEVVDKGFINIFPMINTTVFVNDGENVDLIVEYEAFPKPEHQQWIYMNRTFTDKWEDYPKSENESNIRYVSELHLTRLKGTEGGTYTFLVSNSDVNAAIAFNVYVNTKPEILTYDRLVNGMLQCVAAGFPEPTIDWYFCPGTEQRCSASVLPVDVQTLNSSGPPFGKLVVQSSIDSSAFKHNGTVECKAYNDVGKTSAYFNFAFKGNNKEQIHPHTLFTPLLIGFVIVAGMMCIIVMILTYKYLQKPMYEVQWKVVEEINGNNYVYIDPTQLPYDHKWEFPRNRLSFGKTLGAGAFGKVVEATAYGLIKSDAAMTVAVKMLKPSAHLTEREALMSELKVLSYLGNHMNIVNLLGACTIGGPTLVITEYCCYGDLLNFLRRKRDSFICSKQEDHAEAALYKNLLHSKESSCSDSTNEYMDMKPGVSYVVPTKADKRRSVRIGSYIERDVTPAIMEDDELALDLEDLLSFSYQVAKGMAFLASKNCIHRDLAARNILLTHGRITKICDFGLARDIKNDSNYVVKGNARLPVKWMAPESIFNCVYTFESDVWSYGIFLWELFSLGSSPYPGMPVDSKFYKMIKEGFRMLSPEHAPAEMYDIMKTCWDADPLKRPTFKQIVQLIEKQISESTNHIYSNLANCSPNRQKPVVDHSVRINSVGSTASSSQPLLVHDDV
rhesus CD117 ectodomain (F6V858, form named): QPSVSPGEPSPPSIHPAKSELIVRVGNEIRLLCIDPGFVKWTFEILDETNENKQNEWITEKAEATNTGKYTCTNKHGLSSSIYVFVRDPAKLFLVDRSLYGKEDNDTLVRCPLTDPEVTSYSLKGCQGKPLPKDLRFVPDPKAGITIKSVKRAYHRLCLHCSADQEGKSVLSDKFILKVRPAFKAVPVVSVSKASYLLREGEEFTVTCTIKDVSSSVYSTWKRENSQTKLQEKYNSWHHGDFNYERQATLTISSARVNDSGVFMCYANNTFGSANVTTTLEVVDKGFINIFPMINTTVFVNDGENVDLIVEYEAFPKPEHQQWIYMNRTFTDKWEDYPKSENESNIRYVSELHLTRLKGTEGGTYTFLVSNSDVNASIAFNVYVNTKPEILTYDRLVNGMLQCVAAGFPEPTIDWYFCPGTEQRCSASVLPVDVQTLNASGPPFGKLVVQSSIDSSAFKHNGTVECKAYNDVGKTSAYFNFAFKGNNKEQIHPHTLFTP

Experiments:
[1] = biological target: human CD117 isoform 2 (human) (UniProt P10721); assay: method not described
[2] = biological target: human CD117 isoform 1 (human) (UniProt P10721); assay: method not described
[3] = biological target: rhesus CD117 ectodomain (rhesus) (UniProt F6V858); assay: BLI
[4] = biological target: human CD117 isoform 2 (human) (UniProt P10721); assay: antibodies from yeast library screen; method not given
[5] = biological target: human CD117 isoform 1 (human) (UniProt P10721); assay: as above
[6] = biological target: rhesus CD117 ectodomain (rhesus) (UniProt F6V858); assay: as above
[7] = biological target: rhesus CD117 ectodomain (rhesus) (UniProt F6V858); assay: yeast display screen / follow-up characterisation

binding [1]: binds | binding [2]: binds | binding [3]: binds | binding [4]: binds | binding [5]: binds | binding [6]: binds
B1: Antibody 61 (antibody, human IgG1, kappa, V domains shown)
VH: EVQLLESGGGLVQPGGSLRLSCAASGFTFSSYVMIWVRQAPGKGLEWVSSISGDSVTTYYADSVKGRFTISRDNSKNTLYLQMNSLRAEDTAVYYCAKGPPTYHTNYYYMDVWGKGTTVTVSS
VL: DIQMTQSPSSVSASVGDRVTITCRASQGISSWLAWYQQKPGKAPKLLIYAASSLQSGVPSRFSGSGSGTDFTLTISSLQPEDFATYYCQQTNSFPYTFGGGTKVEIKR

binding [1]: binds | binding [2]: binds | binding [3]: binds | binding [4]: binds | binding [5]: binds | binding [6]: binds
B2: Antibody 57 (antibody, human IgG1, kappa, V domains shown)
VH: QVQLVQSGAEVKKPGSSVKVSCKASGGTFSLYAISWVRQAPGQGLEWMGGIIPHFGLANYAQKFQGRVTITADESTSTAYMELSSLRSEDTAVYYCARGGLDTDEFDLWGRGTLVTVSS
VL: DIQMTQSPSSLSASVGDRVTITCRASQSINSYLNWYQQKPGKAPKLLIYAASSLQSGVPSRFSGSGSGTDFTLTISSLQPEDFATYYCQQGVSDITFGGGTKVEIKR

binding [7]: binds | binding [1]: binds | binding [2]: binds | binding [3]: binds | binding [4]: binds | binding [5]: binds | binding [6]: binds
B3: Antibody 55 (antibody, human IgG1, kappa, V domains shown)
VH: B2 VH with S30R, L31I, H54D, L57V
VL: B2 VL
